## Percent effect of library compounds

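Cell assay of Leishmania donovani living inside macrophages; the read-out is not stated. Tested at 30 µM. The record gives no direction; compounds that gave an IC50 in retests scored well above the rest, so higher reads as stronger inhibition. Of about 69,000 compounds tested this way, about 1,000 (1.5%) reached 50% or more in at least one test.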

Each number is a percent effect as filed.
The record does not define 0% and 100%; most values in the screen are far below 50% and negative numbers occur (in some assays of this library far below -100).
Compounds were drawn at random from those tested, without regard to their results.

For CCc1nc2n(n1)CC(NCc1noc(-c3ccc(C)cc3)n1)CC2 (configuration not stated) the result was -0.6442%. Result for CCOc1ccc(NC(=O)NC2CCc3nc(C)nn3C2)cc1Cl (configuration not stated) was -10.46%. Result for CC1c2ncc(Cn3cccn3)n2CCN1S(=O)(=O)C1CC1 (configuration not stated) was 4.524%. Cn1cc(C(=O)N2CCCC(n3cncn3)C2)ccc1=O (configuration not stated) read 12.33%. Result for COCc1cn([C@@H]2c3ccccc3C3(CCNCC3)[C@H]2O)nn1 was -4.512%. For CCCn1[nH]cc/c1=N\C(=O)CN1CCCC1Cn1cc(C)cn1 (configuration not stated) the result was 35.72%. For COC(=O)c1ccc(N2CCN(C(=O)c3cccnc3)C(C)C2)cc1 (configuration not stated) the result was -9.256%. With COc1cccc(-n2c(C)cc(C(=O)O)c2C)c1 the screen gave 0.3251%.

Cc1ccc(NCCCNC(=O)C2CC3(CCNCC3)CN2C)nc1 (configuration not stated) gave 10.91%. For Cc1ccccc1C1(C(=O)NCCN2CCC(C)CC2)CCOCC1 the result was -11.39%. CS(=O)(=O)c1cc(Cl)cnc1C1CCCN(C(=O)C2CCOCC2)C1 (configuration not stated) read 25.42%. With Cc1noc(C(C)N2CCN(Cc3cccc(C#N)c3)CC2)n1 (configuration not stated) the screen gave 7.39%. Result for CC(C)N(C)CC(=O)NCCc1nc(C(F)(F)F)cs1 was -0.1699%. Result for FC(F)(F)c1ccc(-c2cc(NC3CCNCC3)nc3[nH]ccc23)nc1 was -23.68%. With Cc1ccc(C2(CN(C)Cc3sccc3C)CCNCC2)nc1 the screen gave 56.47%. CCC[C@H]1CN(c2nccc(NCC)n2)C[C@@H]1NS(=O)(=O)N(C)C read 15.07%.

COCCN(Cc1cnn(C)c1)Cc1ccc(C)o1 read 22%. With COCCNC(=O)CN1CCN(c2nc3cc(C)ccc3o2)CC1 the screen gave 20.12%. CN1C(=O)C2(CCN(Cc3cccnc3)CC2)c2cccc(F)c21.Cl gave 32.98%. Result for Cc1nc(N2CCOCC2)nc2c1CCN(c1nccs1)CC2 was 5.795%. With CC(C)c1nnc2ccc(N3CCC(C(=O)NC4CC4)CC3)nn12 the screen gave 6.997%. With COc1ccc(C)cc1-n1c(COC(C)C)n[nH]c1=O the screen gave 0.03514%. COc1ccc(-c2nc(CN3CCOCS3(=O)=O)c(C)o2)cc1 gave -24.63%. Result for CCc1noc(CC)c1CNC(=O)Nc1cccc(C(=O)N(C)C)c1 was -4.056%.

Result for Cc1nc(COc2ccc(CNCCn3cccn3)cc2)cs1 was -7.156%. For Cc1ccc(CN(CCCN2CCOCC2)Cc2cnn(C)c2)o1.O=C(O)CC(O)(CC(=O)O)C(=O)O the result was 18.39%. Result for CN(C(=O)Cc1coc(-c2cccs2)n1)C1(C#N)CCC1 was -5.03%. [H][C@]12CC[C@](O)(CC1)C(CO)N2C(=O)Nc1ccccc1 (some centres not stated) read -5.205%. With COc1cccc(S(=O)(=O)CCNCCn2cccn2)c1 the screen gave 22.97%. For CC(C)Oc1ccccc1C1CC(=O)Nc2nc(N3CCOCC3)sc21 (configuration not stated) the result was -10.59%. For Cc1noc(C2CCCN(C(=O)CCNc3ncccn3)C2)n1 (configuration not stated) the result was 10.45%. With O=C(O)C(F)(F)F.O=C1CC2(CCCCN2C(=O)c2ccco2)CN1c1cccnc1 (configuration not stated) the screen gave -20.35%.

With Cc1ccc(CNC(=O)Nc2nnc(C(C)C)s2)n1C the screen gave 14.83%. With NC(=O)C1CCN(C(=O)c2cccc(CN3CCOCC3)c2)CC1 the screen gave -7.748%. Result for CN(c1cccnc1N1CCCC1)S(=O)(=O)c1cnn(C)c1 was 3.236%. O=C(CC1CCCO1)NCCc1ccc(Br)cc1F (configuration not stated) gave 20.35%. CCN(C(=O)NCc1cccnc1N(C)C)C(C)c1cccnc1 (configuration not stated) gave 31.88%. Result for CCOC(=O)C1CCCN(c2ccc(-c3nc(C)no3)cn2)C1 (configuration not stated) was 4.695%. CS(=O)(=O)CCOCCNc1ccc2ccc(F)cc2n1 read 12.92%. With CCn1cnnc1CCNC(=O)c1ccc(Br)cc1F the screen gave 29.77%.

For O=C(NCCNc1ncccn1)C1CC(=O)N(CC(F)(F)F)C1 (configuration not stated) the result was 4.899%. For CNC(=O)C1(C)CCCN(c2cnccn2)C1 (configuration not stated) the result was 6.489%. Result for CCc1nsc(N2CCN(Cc3ccno3)CC2)n1 was 25.2%. With COC(=O)C1CCN(C(=O)Cn2ccc(-c3ccsc3)n2)CC1 the screen gave 28.92%. CC(=O)c1cccc(NC(=O)N2CCCCC2CN2CCCC2=O)c1 (configuration not stated) gave 9.845%. With CC(C)Cc1cc(C(=O)NC(C)C)[nH]n1 the screen gave 25.56%. O=C(O)C(F)(F)F.O=C(O)C(F)(F)F.O=S(=O)(C1CC1)N1CCC2(CC1)CN(Cc1ccccn1)CCO2 read 14.1%. For CCc1cc(=O)[nH]c(-c2ccc(NC(C)CN3CCOCC3)nc2)n1 (configuration not stated) the result was 7.67%.

With O=C(c1ncn2c(C3CCN(CC4CC4)CC3)ccnc12)N1CCCC1 the screen gave 22.3%.

Repeated from the top, 3 entries:

- CCc1nc2n(n1)CC(NCc1noc(-c3ccc(C)cc3)n1)CC2 (configuration not stated) | -0.6442%
- CCOc1ccc(NC(=O)NC2CCc3nc(C)nn3C2)cc1Cl (configuration not stated) | -10.46%
- CC1c2ncc(Cn3cccn3)n2CCN1S(=O)(=O)C1CC1 (configuration not stated) | 4.524%

The values are deposited in ChEMBL (CHEMBL3988442, “University of Dundee, Small-Polar-MMV Screening Library” (2021)).